Assay results reported in paper PMC12040169 (PLOS Biology, 2025).
The list shows a part of the results.

The compounds below were run on T1, CTL2-GFP (C. trachomatis L2/434/Bu, GFP-expressing). Details: bulk GFP, single well; 28.5 h, 10 µM; inhibitor.
T1 construct: L2/434/Bu, GFP-expressing
Design: species or system HeLa; Intracellular C. trachomatis growth in HeLa cells, bulk GFP fluorescence relative to DMSO
`O=C(Nc1ccccc1C(=O)Nc1ccccc1C(=O)O)c1ccccc1` [CBK261551] was tested, and the “% of control remaining” value was 81.9492%.
In the case of `Cn1nc(C(=O)NCCSc2n[nH]c(=O)[nH]c2=O)c2ccccc2c1=O` [CBK297501], the “% of control remaining” value is reported as 146.104%.
In the case of `COc1ccc(C(C)C)cc1-c1cnc2nc(O)ccc2c1` [CBK081286], the “% of control remaining” value is reported as 76.0459%.
`CCCCn1cc(CN(C)C)c2c(C)ccnc21` [CBK008697] was tested, and the “% of control remaining” value was 106.445%.
With `O=C(NC1(c2ccccc2)CC1)c1cc(-n2cnnc2)ccc1Cl` [CBK282777] the “% of control remaining” value was 113.745%.
In the case of `O=[N+]([O-])c1ccc(N2CCNCC2)cc1NCc1ccccn1` [CBK268074], the “% of control remaining” value is reported as 110.085%.
For `O=S(=O)(NC1CCN(Cc2ccccc2)CC1)c1cccc2nsnc12` [CBK062029], the “% of control remaining” value was 103.711%.
In the case of `Cc1[nH]nc(-c2ccc(O)c(C)c2O)c1Oc1ccc(F)cc1` [CBK264478], the “% of control remaining” value is reported as 63.6267%.
With `CCN(CC)c1ccc(/C=N/NC(=O)CC2=NNC(=O)C2)cc1` [CBK020059] the “% of control remaining” value was 155.57%.
`COc1ccc(-c2nc(-c3ccc(C#N)cc3)cnc2N)cc1OC` [CBK063885] was tested, and the “% of control remaining” value was 73.1914%.
In the case of `COc1ccc(C2(C(=O)Nc3ccc(-c4ccccc4OC)cc3)CCOCC2)cc1` [CBK285710], the “% of control remaining” value is reported as 99.1978%.
`CC(C)[C@H]1CN(Cc2ccco2)CCN1C(=O)N1CCOCC1` [CBK284273] was tested, and the “% of control remaining” value was 121.303%.
`CCOC(=O)COc1ccc(C#N)cc1OCC` [CBK058937] was tested, and the “% of control remaining” value was 126.023%.
`Cc1cc(NC(=O)c2ccc(OC(C)C)cc2)no1` [CBK287575] was tested, and the “% of control remaining” value was 164.291%.
`O=C(c1nc2ccccc2s1)C1CCN(C(=O)CCc2ccc(-c3ccccc3)o2)CC1` [CBK286170] was tested, and the “% of control remaining” value was 124.476%.
For `CCN(CC)C(=O)Cn1nc(C)n2c(cc3sccc32)c1=O` [CBK284044], the “% of control remaining” value was 145.487%.
With `Cn1ccnc1C(NC(=O)C1C2CCCCC21)c1ccc(F)cc1` (stereo not shown) [CBK281441] the “% of control remaining” value was 111.35%.
`O=C(O)COc1cccc(NC(=O)c2ccccc2)c1` [CBK264602] was tested, and the “% of control remaining” value was 100%.
`Cc1cc(NC(=O)C(C)(C)C)nc2c1c(=O)oc1ccccc12` [CBK287443] was tested, and the “% of control remaining” value was 152.293%.
For `COc1ccc(Cl)cc1C1(CNC(=O)C2CCC(N)C2)CCOCC1` (stereo not shown) [CBK305523], the “% of control remaining” value was 129.569%.
`CC(C)(C)OC(=O)N1CCC(C(=O)NC[C@H](CC(=O)O)c2ccc(Cl)cc2)CC1` [CBK286691] was tested, and the “% of control remaining” value was 112.443%.
`CS(=O)(=O)c1ccccc1C(=O)n1ccn(-c2cccc(C(F)(F)F)c2)c1=O` [CBK106584] was tested, and the “% of control remaining” value was 125.902%.
In the case of `CC1CCCN(CCCNS(=O)(=O)c2ccc(N3CCCC3=O)cc2)C1` (stereo not shown) [CBK304213], the “% of control remaining” value is reported as 111.498%.
For `Nn1cnn2c(SCc3ccc(Cl)cc3)nnc12` [CBK263193], the “% of control remaining” value was 125.493%.
For `O=C1NCC2(C/C=C/CCOc3ccccc31)CCN(C(=O)Cc1cccc(F)c1)CC2` [CBK292015], the “% of control remaining” value was 99.5725%.
For `Brc1ccc2c(c1)COC1(CN3CCC1CC3)O2` (stereo not shown) [CBK105268], the “% of control remaining” value was 107.517%.
With `Cc1n[nH]c(C)c1-c1ccc2c(cnn2C)c1` [CBK307314] the “% of control remaining” value was 143.943%.
With `CC(C)(C)CC(=O)NS(=O)(=O)c1cccc(-c2nnco2)c1` [CBK305258] the “% of control remaining” value was 101.945%.
For `CN(C)C(=O)COc1cccc(Nc2nc(-c3cccc4ccccc34)cn3ccnc23)c1` [CBK037393], the “% of control remaining” value was 164.327%.
In the case of `Cn1c(N2CCOCC2)nc2cc(C(=O)NCCn3cccn3)ccc21` [CBK307033], the “% of control remaining” value is reported as 123.551%.
For `CC(C)NC(=O)N1C[C@@H]2C[C@H](C1)c1ccc(-c3cccnc3)c(=O)n1C2` [CBK289184], the “% of control remaining” value was 157.765%.
In the case of `O=C(Nc1ccncc1)c1cnn(-c2ccc(Cl)cc2)c1C(F)(F)F` [CBK107441], the “% of control remaining” value is reported as 96.5508%.
`O=C(NCc1ccc(F)cc1)NC(=O)C1CCN(CCc2ccc(Br)cc2)CC1` [CBK034836] was tested, and the “% of control remaining” value was 143.37%.
In the case of `CCN(CC)c1ccc(CN(CCCN(C)C)C(=O)NCC2CCCCC2)cc1` [CBK159392], the “% of control remaining” value is reported as 89.1244%.
In the case of `O=C(NC1CCCC1)c1ccc2c(c1)C(=O)N(CC1CCCO1)C2=O` (stereo not shown) [CBK269777], the “% of control remaining” value is reported as 81.2335%.
In the case of `CO[C@@]12CC[C@@H](O)C[C@@H]1N(C(=O)c1cccc3c1NCCC3)CC2` [CBK306741], the “% of control remaining” value is reported as 133.595%.
In the case of `Cc1ccc(C)c2[nH]c(=O)c(CN(CCN3CCOCC3)Cc3nnnn3Cc3ccccc3)cc12` [CBK108063], the “% of control remaining” value is reported as 112.316%.
In the case of `O=C(O)c1ccc(OCCN2CCOCC2)cc1` [CBK287038], the “% of control remaining” value is reported as 126.698%.
With `CNC(=O)C1(Cc2ccccc2-c2cccs2)CCN(C(=O)CCc2ccccc2)CC1` [CBK285900] the “% of control remaining” value was 97.6282%.
In the case of `O=C(N[C@H]1C[C@H]2C(=O)Nc3ccccc3C(=O)N2C1)c1ccccc1` [CBK289354], the “% of control remaining” value is reported as 99.581%.
For `COc1cc(C)cc(OC)c1-c1ncnc(C)c1C` [CBK306762], the “% of control remaining” value was 125.495%.
In the case of `COc1cccc2cc(C(=O)NCc3ccc4c(c3)OCO4)oc12` [CBK149797], the “% of control remaining” value is reported as 87.7663%.
With `Cc1noc(C)c1C(=O)N1CCCCCC1c1ccn(C)n1` (stereo not shown) [CBK284917] the “% of control remaining” value was 118.629%.
For `O=C(C(c1ccccc1)c1ccccc1)N1CCN(c2ncccn2)CC1` [CBK144504], the “% of control remaining” value was 108.183%.
`CCOC(=O)c1c(CN(C)C)n(-c2ccccc2)c2cc(Br)c(O)cc12` [CBK261309C] was tested, and the “% of control remaining” value was 115.015%.
`NC(=O)[C@@H]1C[C@@H](O)[C@H](O)[C@H]2[C@@H]1N(c1ccc(Cl)cc1)C(=S)N2Cc1cccs1` [CBK288930] was tested, and the “% of control remaining” value was 136.37%.
For `COCCNC(=O)c1cc(-c2cccc(N(C)C)c2)cnc1NCC1CC1` [CBK076288], the “% of control remaining” value was 100%.
`Cc1ccn2c(=O)cc(COC(=O)c3sc4nc(C)cc(C)c4c3N)nc2c1` [CBK297783] was tested, and the “% of control remaining” value was 118.949%.
In the case of `O=C(O)CCC(=O)c1c[nH]c2ccccc12` [CBK261275], the “% of control remaining” value is reported as 98.4146%.
With `Cc1nn(C)cc1-c1cncn1C(C)Cc1c(C)nn(C)c1C` (stereo not shown) [CBK281786] the “% of control remaining” value was 103.808%.
With `CS(=O)(=O)N(CC(=O)N1CCN(Cc2ccc3c(c2)OCO3)CC1)c1cccc(C(F)(F)F)c1` [CBK265329] the “% of control remaining” value was 105.26%.
With `c1cc(OCCN2CCCC2)c2cc[nH]c2c1` [CBK083478] the “% of control remaining” value was 128.466%.
In the case of `CC(C)(C)NC(=O)NC1CCC2(CC1)CC(=O)c1ccccc1O2` (stereo not shown) [CBK283390], the “% of control remaining” value is reported as 68.2039%.
`CC1Cc2ccccc2N1CCNC(=O)Cc1cn2ccsc2n1` (stereo not shown) [CBK306499] was tested, and the “% of control remaining” value was 126.756%.
For `CN(C)C(=O)C1(Cc2ccccc2-c2cccnc2)CCN(Cc2ccccc2)CC1` [CBK285522], the “% of control remaining” value was 128.345%.
`O=C(COc1ccc(Cl)cc1)NCCc1ccc(S(=O)(=O)NC(=O)NC2CCCCC2)cc1` [CBK013261] was tested, and the “% of control remaining” value was 137.994%.
`Cc1cc(C(=O)NCCn2nc(C)c(C)c2C)c2cccc(C)c2n1` [CBK281388] was tested, and the “% of control remaining” value was 92.4803%.
In the case of `COc1ccc(NC(=O)c2ccc(-c3ccc(Nc4ccc5c(c4)OCCO5)nc3)cc2)cc1` [CBK036815], the “% of control remaining” value is reported as 146.017%.
`Cc1csc(C(Cc2ccsc2)NC(=O)c2ccc(=O)[nH]c2)n1` (stereo not shown) [CBK285109] was tested, and the “% of control remaining” value was 112.577%.
`COc1ccnc(N2CCCN(CCN3CCOCC3)CC2)n1` [CBK084120] was tested, and the “% of control remaining” value was 85.5631%.
`COc1ccc(-c2cc3cccnc3n2CC(=O)NC(C)C)cc1` [CBK285380] was tested, and the “% of control remaining” value was 138.18%.
`O=S(=O)(Cc1cccc(F)c1F)c1cc2c(N3CCNCC3)nccc2s1` [CBK045690C] was tested, and the “% of control remaining” value was 124.457%.
For `O=c1c2ccsc2ncn1Cc1nnc(-c2ccc(Br)o2)o1` [CBK295642], the “% of control remaining” value was 144.216%.
For `c1ccc(CCNc2cncc(-c3cccs3)n2)nc1` [CBK065510], the “% of control remaining” value was 158.165%.
For `Cc1nc2c(C(=O)N3CCOCC3)cnn2c(C)c1Cc1ccccc1` [CBK162201], the “% of control remaining” value was 112.358%.
In the case of `O=C(O)CCCCn1c2c(c3ccccc31)CCCC2` [CBK000253], the “% of control remaining” value is reported as 106.729%.
With `CC1CCN(Cc2ccc(-c3cn(CC(=O)NCc4ccc(OC(F)(F)F)c(F)c4)nn3)cc2)CC1` [CBK167536] the “% of control remaining” value was 129.249%.
`O=C(O)/C(=C\c1ccc(Cl)cc1)NC(=O)c1ccccc1I` [CBK265701] was tested, and the “% of control remaining” value was 119.94%.
For `COc1ccccc1CN(C)C(C)=O` [CBK024120], the “% of control remaining” value was 93.6701%.
For `NS(=O)(=O)c1ccc(NC(=O)c2cc([N+](=O)[O-])ccc2N2CCOCC2)cc1` [CBK268972], the “% of control remaining” value was 146.686%.
In the case of `Cc1ccc(C2(O)CC3CCC(C2)N3C(=O)C2CCC2)cc1` (stereo not shown) [CBK103860], the “% of control remaining” value is reported as 103.39%.
With `C#CCNC(=O)c1nn(Cc2ccc(CN3C(=O)CCC3=O)cc2)c2ccc(OC)cc12` [CBK048668] the “% of control remaining” value was 130.098%.
`COc1cncc(-c2ccc(Nc3ccc(OC)nc3)nc2)c1` [CBK037773] was tested, and the “% of control remaining” value was 200.034%.
In the case of `Cc1nc2c(c(=O)[nH]1)CN(C(=O)Cc1c(F)cccc1Cl)CC2` [CBK283589], the “% of control remaining” value is reported as 131.53%.
In the case of `CC(NC(=O)Cc1ccccc1F)c1nc2cccnc2n1C(C)C` (stereo not shown) [CBK283829], the “% of control remaining” value is reported as 123.398%.
For `COC(=O)c1cscc1NC(=O)c1cnc(-c2cccc(C)c2)c(-c2ccc(C(C)=O)s2)c1` [CBK036760], the “% of control remaining” value was 133.988%.
In the case of `CN(CC(=O)NCc1ccccc1OC1CCNC1)C(=O)c1ccccc1` (stereo not shown) [CBK028298T], the “% of control remaining” value is reported as 100%.
With `CC1(Cn2ccnc2-c2ccccc2C(=O)O)CCCO1` (stereo not shown) [CBK307439] the “% of control remaining” value was 111.061%.
In the case of `NS(=O)(=O)c1ccc(CNC(=O)C2(c3ccccc3)CCCC2)cc1` [CBK161523], the “% of control remaining” value is reported as 111.821%.
